Structures can show the parent of a compound that is named as a salt. ± gives the standard deviation of the averaged measurements. The list shows a part of the results. Part of the spread comes from offsets between plates or batches.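 The cells are a mouse kidney inner medullary collecting duct line, silenced either for the ciliary gene Rpgrip1l or with a non-targeting control siRNA.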
Tests used:
mIMCD3 [1] = test: robust z score of cell number vs plate controls; higher = more cells (less cytotoxic); settings: 10 µM, 48 h
mIMCD3 [2] = test: robust z score of cilia incidence (% cells with single cilium) vs plate controls; higher = more ciliated cells; settings: 10 µM; 48 h; siRNA: siScr
mIMCD3 [3] = test: robust z score of cilia incidence (% cells with single cilium) vs plate controls; higher = more ciliated cells (rescue of cilia loss); settings: 10 µM; 48 h; siRNA: siRpgrip1l

| SMILES | robust z score of cell number (mIMCD3 [1]; siRNA: siRpgrip1l) | robust z score of cell number (mIMCD3 [1]; siRNA: siScr) | robust z score of cilia incidence (mIMCD3 [2]) | robust z score of cilia incidence (mIMCD3 [3]) |
| --- | --- | --- | --- | --- |
| Clc1ccc(C2=CCCC3CCC2N3)cn1 (stereo not given) [UB 165 fumarate] | -36 ± 47 | 0.00933 ± 0.9 | -4.17 ± 1.1 | -8.46 ± 3.7 |
| CN1CCN(c2ccc3ccccc3n2)CC1 [N-Methylquipazine dimaleate] | -0.0486 ± 4.4 | 5.2 ± 7.2 | -4.53 ± 0.6 | -25.8 ± 2.2 |
| C[N+]1(C)CCc2cc3c(cc2C1C1OC(=O)c2c1ccc1c2OCO1)OCO3 (single isomer, unassigned; (-)) [(-)-Bicuculline methobromide] | -1.42 ± 4.7 | -4.25 ± 0.11 | -1.77 ± 2.9 | -10.9 ± 3.6 |
| O=C1NC(=O)c2c1c1c3ccccc3n3c1c1c2c2ccccc2n1[C@H]1CC[C@@H]3O1 | -29.2 ± 8.7 | -117 ± 82 | -33.6 ± 10 | -37.5 ± 3.2 |
| c1ccc2sc(C3(N4CCCCC4)CCCCC3)cc2c1 [BTCP maleate] | -8.96 ± 0.67 | -8.25 ± 4.2 | -16.5 ± 3.2 | -24.5 ± 1.9 |
| NCCc1c[nH]c2ccc(O)cc12 [Serotonin] | -8.91 ± 8.2 | -3.61 ± 2.4 | -9.09 ± 9.2 | -7.76 ± 1.6 |
| c1ccc(C2CNCc3ccccc32)cc1 (stereo not given) [4-Phenyl-1,2,3,4-tetrahydroisoquinoline hydrochloride] | -2.52 ± 3 | -2.58 ± 0.36 | -4.15 ± 1.8 | -9.39 ± 1.6 |
| CN1[C@@H]2CC[C@H]1C[C@@H](OC(c1ccc(F)cc1)c1ccc(F)cc1)C2 [3 α-Bis-(4-fluorophenyl) methoxytropane hydrochloride] | -30.38 ± 0.056 | -29.3 ± 14 | -45.2 ± 9.5 | -27.3 ± 5 |
| C/C(O)=C(\C#N)C(=O)Nc1cc(Br)ccc1Br | -37.4 ± 43 | -8.08 ± 6.2 | -12.6 ± 19 | -8.49 ± 1.4 |
| c1ccc(CCCN2CCN(CCOC(c3ccccc3)c3ccccc3)CC2)cc1 | -96.9 ± 57 | -156 ± 140 | -11.4 ± 3.7 | -24.2 ± 9.5 |

No new results follow: entries from further up.

| SMILES | robust z score of cell number (mIMCD3 [1]; siRNA: siRpgrip1l) | robust z score of cell number (mIMCD3 [1]; siRNA: siScr) | robust z score of cilia incidence (mIMCD3 [2]) | robust z score of cilia incidence (mIMCD3 [3]) |
| --- | --- | --- | --- | --- |
| NCCc1c[nH]c2ccc(O)cc12 [Serotonin] | -8.91 ± 8.2 | -3.61 ± 2.4 | -9.09 ± 9.2 | -7.76 ± 1.6 |
| c1ccc(C2CNCc3ccccc32)cc1 (stereo not given) [4-Phenyl-1,2,3,4-tetrahydroisoquinoline hydrochloride] | -2.52 ± 3 | -2.58 ± 0.36 | -4.15 ± 1.8 | -9.39 ± 1.6 |
